The values below come from paper PMC9429723 (Journal of Nanobiotechnology, 2022).

HELM strings list residues between dots; [ac] is acetyl, [am] amide, other brackets name non-standard units.

This series can be described thus: general procedure: Fmoc solid-phase peptide synthesis; 2-chlorotrityl chloride resin. The conditions noted are these: whole synthesis.
In turn, “PEPTIDE1{[Nap].[dF].[dF].Y.[CS].D.E.V.D.[BSO]}$$$$V2.0” came in with an isolated yield of 18.18%.

“PEPTIDE1{[Nap].[dF].[dF].Y.[CS].D.E.V.D}$$$$V2.0” registered an isolated yield of 24.7%.

“PEPTIDE1{[Nap].[dF].[dF].Y.[HDA].D.E.V.D.[BSO]}$$$$V2.0” had an isolated yield of 15.69%.
